Experimental data: article PMC7862700
This is a selection; strong and weak results do not stand in their true shares. At the low end of the ranking the order means little.

The sequences below were run against T1, FEV (UniProt Q99581) (assay: DAPPL (digital affinity profiling via proximity ligation, sequencing)). Conditions: 10 mM Tris-HCl pH 7.5, 50 mM NaCl, 1 mM DTT, 4% glycerol, room temperature, 30 min; GST-TFs on glutathione beads, 16-mer random dsDNA library, 0.1% …; high values mean tight binding; double strand, one strand shown; scale: fold enrichment (6-mer frequency, TF over GST control).
T1 sequence: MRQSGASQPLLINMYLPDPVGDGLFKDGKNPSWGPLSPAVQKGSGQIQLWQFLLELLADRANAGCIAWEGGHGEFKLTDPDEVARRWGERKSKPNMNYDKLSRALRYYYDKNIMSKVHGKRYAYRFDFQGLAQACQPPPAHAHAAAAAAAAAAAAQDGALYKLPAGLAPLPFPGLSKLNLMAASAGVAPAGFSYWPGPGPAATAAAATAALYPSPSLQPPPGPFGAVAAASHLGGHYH
Work on TAACAA yielded a binding signal of 1.18. In the case of AATCGA, the binding signal is reported as 0.967. Sequence CTTAGG has a binding signal of 1.11. TTCGTT showed a binding signal of 1.3. TAGCGG showed a binding signal of 1.12. TCACGC showed a binding signal of 1.18. In the case of GCTCGC, the binding signal is reported as 1.42. ACAGAT was tested, and the binding signal was 0.963. With TCCTTG the binding signal was 1.21.

The sequences below were run against T2, ELF5 (UniProt Q9UKW6-2) in the same assay as above. Conditions: 10 mM Tris-HCl pH 7.5, 50 mM NaCl, 1 mM DTT, 4% glycerol, room temperature, 30 min; GST-TFs on glutathione beads, 16-mer random dsDNA library, 0.1% …; high values mean tight binding; double strand, one strand shown; scale: fold enrichment (6-mer frequency, TF over GST control).
T2 sequence: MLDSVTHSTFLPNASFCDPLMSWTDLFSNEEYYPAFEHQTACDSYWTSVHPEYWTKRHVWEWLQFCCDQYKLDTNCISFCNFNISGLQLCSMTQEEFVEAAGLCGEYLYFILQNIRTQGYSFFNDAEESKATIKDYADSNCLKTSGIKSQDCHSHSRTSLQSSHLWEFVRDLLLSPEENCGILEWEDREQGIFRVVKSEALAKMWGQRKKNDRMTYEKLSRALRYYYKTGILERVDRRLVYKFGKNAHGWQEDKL
TGCGCT showed a binding signal of 1.15. Sequence CCTCTC has a binding signal of 1.41. With TACCGA the binding signal was 1.08. Sequence TAACAA has a binding signal of 1.14. AATCGA gave a binding signal of 0.954. In the case of AAAGAA, the binding signal is reported as 1.23. For TTCCCT, the binding signal was 2.49. For CTCTCA, the binding signal was 1.28. Sequence CTTAGG has a binding signal of 1.11. With CTATAC the binding signal was 1.26. Work on TTCGTT yielded a binding signal of 1.32. CTAAAC was tested, and the binding signal was 1.19. With ACTTAT the binding signal was 1.38. With TAGCGG the binding signal was 1.12. With ATTTCC the binding signal was 6.17. In the case of ATGTAT, the binding signal is reported as 1.31. TCACGC was tested, and the binding signal was 1.15. For ATCATC, the binding signal was 1.17. With TAACAC the binding signal was 1.2. Sequence GCTCGC has a binding signal of 1.31. TGTTAA gave a binding signal of 1.13. TGGTAT was tested, and the binding signal was 1.37. With TTAAAA the binding signal was 1.11. TAACCT was tested, and the binding signal was 1.29. With CTTGAT the binding signal was 1.39. GAAATC showed a binding signal of 1.58. TTTAGG was tested, and the binding signal was 0.984. In the case of GAAATA, the binding signal is reported as 1.73. Sequence AACCTT has a binding signal of 1.33. Work on ACAGAT yielded a binding signal of 0.932. In the case of TTGCGG, the binding signal is reported as 1.24. With CCCAAT the binding signal was 1.23. In the case of TCCTTG, the binding signal is reported as 1.95. GCCTCC was tested, and the binding signal was 1.29. For CCTCTA, the binding signal was 1.48. With TATGAA the binding signal was 1.07. Work on TACATG yielded a binding signal of 1.16. AGCCTC gave a binding signal of 1.16. AACCTC was tested, and the binding signal was 1.17.
